Results deposited as PubChem BioAssay AID720505 (Drosophila RNAi Screening Center, 2013)
In all, the deposit lists about 20,000 reagents; below is a random part of those that have a named target and a result. In the full data, about 2,100 (10%) are marked active. 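Raw plate signals without normalisation; calls rest on control-based scores that were not deposited; replicate 2 separates called from uncalled poorly.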 Not stated in the record: the amount of reagent, the time to read-out.

Screen: 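Genes needed for store-operated calcium entry in fly cells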 (primary screen)
Cells: Drosophila S2R+ cells
Reagent: long dsRNA against Drosophila genes
Treatment: thapsigargin (2 µM) in calcium-free buffer to empty internal stores, then 2 mM calcium added back
Measurement: 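Fluo-4 signal in 384-well plates read on a FLIPR after thapsigargin (2 µM, calcium-free) store depletion and 2 mM calcium add-back; unnormalised mean endpoint per well; screen run twice, selected wells retested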
Reading the numbers: calcium signal and retest calcium signal: higher = more calcium entry after store depletion
Active means: 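About 1500 genes called as lowering calcium entry, by varying amounts, judged against per-plate control wells with STIM1 as positive and Rho1 as negative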
Calls: active = called as lowering calcium entry; inactive = not called

| gene knocked down | amplicon | calcium signal, replicate 1 | calcium signal, replicate 2 | retest calcium signal, replicate 1 | retest calcium signal, replicate 2 | outcome |
| --- | --- | --- | --- | --- | --- | --- |
| Mdh2 (Malate dehydrogenase 2) | DRSC16361 | 196 | 168 | – | – | inactive |
| Vps45 (Vacuolar protein sorting 45) | DRSC16398 | 167 | 141 | – | – | inactive |
| P5cr (Pyrroline 5-carboyxlate reductase) | DRSC16782 | 166 | 146 | – | – | inactive |
| CG13920 | DRSC08389 | 199 | 118 | – | – | inactive |
| Tsp42Ep (Tetraspanin 42Ep) | DRSC06871 | 215 | 99.8 | – | – | inactive |
| CG12728 | DRSC17883 | 101 | 122 | – | – | inactive |
| Shrm (Shroom) | DRSC06437 | 115 | 152 | – | – | inactive |
| Shrm (Shroom) | DRSC06438 | 89.4 | 96.8 | – | – | inactive |
| Shrm (Shroom) | DRSC07221 | 199 | 134 | – | – | inactive |
| Shrm (Shroom) | DRSC23067 | 84.5 | 60.1 | – | – | inactive |
| CG12715 | DRSC19492 | 84.4 | 86.7 | – | – | inactive |
| CG7872 | DRSC20062 | 149 | 127 | – | – | inactive |
| CG12321 | DRSC14499 | 186 | 284 | – | – | inactive |
| CG13991 | DRSC02323 | 159 | 80.9 | – | – | inactive |
| Mtmr6 (Myotubularin related protein 6) | DRSC04046 | 105 | 136 | – | – | inactive |
| Zw10 (Zeste-white 10) | DRSC18793 | 118 | 118 | – | – | inactive |
| SoxN (SoxNeuro) | DRSC03440 | 85.9 | 90.5 | 102 | 140 | inactive |
| SoxN (SoxNeuro) | DRSC21779 | 121 | 106 | – | – | inactive |
| fzo (fuzzy onions) | DRSC16954 | 208 | 148 | – | – | inactive |
| CG33229 | DRSC07863 | – | – | – | – | active |
| RpS30 (Ribosomal protein S30) | DRSC15119 | 97.8 | 163 | – | – | active |
| Ak3 (Adenylate kinase 3) | DRSC16075 | 173 | 88.9 | – | – | inactive |
| CG3598 | DRSC18471 | 129 | 142 | – | – | inactive |
| Rsph3 (Radial spoke head protein 3) | DRSC09696 | 80.7 | 173 | – | – | inactive |
| Rsph3 (Radial spoke head protein 3) | DRSC10211 | 118 | 75.7 | – | – | inactive |
| Cyp4ac1 (Cytochrome P450 4ac1) | DRSC03302 | 109 | 195 | 115 | 108 | inactive |
| lic (licorne) | DRSC20347 | 116 | 127 | – | – | inactive |
| CG3634 | DRSC11747 | 103 | 151 | – | – | inactive |
| smid (smallminded) | DRSC11398 | 92.4 | 53 | – | – | inactive |
| Itgbn (Integrin betanu subunit) | DRSC03493 | 174 | 118 | – | – | inactive |
| Aprt (Adenine phosphoribosyltransferase) | DRSC08139 | 79.4 | 96.4 | – | – | inactive |
| CG10600 | DRSC02074 | 72.4 | 90.5 | – | – | inactive |
| CG3687 | DRSC06850 | 177 | 185 | – | – | inactive |
| Pu (Punch) | DRSC04645 | 165 | 74.5 | – | – | inactive |
| TfIIS (RNA polymerase II elongation factor) | DRSC03455 | 156 | 113 | – | – | inactive |
| JMJD4 (Jumonji domain containing 4) | DRSC03025 | 82.6 | 111 | – | – | inactive |
| CG30392 | DRSC22341 | 103 | 198 | – | – | inactive |
| chk (chaski) | DRSC04994 | 182 | 125 | – | – | inactive |
| DCTN3-p24 (Dynactin 3, p24 subunit) | DRSC04592 | 141 | 96.9 | – | – | inactive |
| l(2)10685 (lethal (2) 10685) | DRSC00665 | 106 | 206 | – | – | inactive |
| CG14810 | DRSC17961 | 131 | 155 | – | – | inactive |
| futsch | DRSC17688 | – | – | – | – | inactive |
| futsch | DRSC17949 | 91.4 | 115 | 6760 | 138 | inactive |
| futsch | DRSC17952 | 68.9 | 94.6 | – | – | active |
| futsch | DRSC18543 | 94.4 | 104 | – | – | inactive |
| CG7099 | DRSC03006 | 101 | 131 | – | – | inactive |
| dpr4 (defective proboscis extension response 4) | DRSC14531 | 153 | 127 | – | – | inactive |
| dpr4 (defective proboscis extension response 4) | DRSC14929 | 187 | 108 | – | – | inactive |
| bys (by S6) | DRSC18748 | 108 | 103 | – | – | inactive |
| HLH54F | DRSC07438 | 158 | 174 | – | – | inactive |
| CG5381 | DRSC02852 | 212 | 147 | – | – | inactive |
| Klp31E (Kinesin-like protein at 31E) | DRSC03354 | 132 | 122 | – | – | inactive |
| CG2269 | DRSC06833 | 193 | 154 | – | – | inactive |
| wcd (wicked) | DRSC07051 | 185 | 110 | – | – | inactive |
| CG12682 | DRSC17873 | 278 | 98.6 | – | – | inactive |
| MED4 (Mediator complex subunit 4) | DRSC11014 | 153 | 106 | – | – | inactive |
| AsnRS (Asparaginyl-tRNA synthetase) | DRSC01990 | 91.1 | 112 | – | – | inactive |
| CG4781 | DRSC04488 | 125 | 220 | – | – | inactive |
| Atpalpha (Na pump alpha subunit) | DRSC14119 | 177 | 328 | – | – | inactive |
| sky (skywalker) | DRSC02383 | 96 | 108 | – | – | inactive |
| sky (skywalker) | DRSC03214 | 98.4 | 103 | – | – | inactive |
| sky (skywalker) | DRSC03215 | 214 | 112 | – | – | inactive |
| l(2)37Cd (lethal (2) 37Cd) | DRSC02069 | 48.1 | 165 | – | – | active |
| Kap-alpha1 (karyopherin alpha1) | DRSC11356 | 120 | 139 | – | – | inactive |
| CG14282 | DRSC14763 | 130 | 127 | – | – | inactive |
| Fer3 (48 related 3) | DRSC16133 | 123 | 172 | – | – | inactive |
| mRpL40 (mitochondrial ribosomal protein L40) | DRSC15749 | 140 | 94.1 | – | – | inactive |
| fwe (flower) | DRSC09398 | – | – | – | – | inactive |
| fwe (flower) | DRSC10594 | 149 | 121 | – | – | inactive |
| fwe (flower) | DRSC21400 | 248 | 93.5 | – | – | inactive |
| CG1299 | DRSC08300 | 97.1 | 103 | – | – | inactive |
| CG8950 | DRSC07300 | 56.5 | 126 | – | – | active |
| CG14605 | DRSC12549 | 126 | 171 | – | – | inactive |
| aqrs (aquarius) | DRSC14724 | 169 | 178 | – | – | inactive |
| CG11345 | DRSC08176 | 59.6 | 70.4 | – | – | inactive |
| Pi3K59F (Phosphatidylinositol 3-kinase 59F) | DRSC04640 | 158 | 93.2 | – | – | inactive |
| Tob (Transducer of ERBB2) | DRSC20294 | 118 | 132 | – | – | inactive |
| CG8565 | DRSC20112 | 84.4 | 115 | – | – | inactive |
| BBS9 (Bardet-Biedl syndrome 9) | DRSC04257 | 126 | 117 | – | – | inactive |
| Aldh7A1 (Aldehyde dehydrogenase 7 family member A1) | DRSC11083 | 152 | 106 | – | – | inactive |
| Mcm10 (Minichromosome maintenance 10) | DRSC03162 | 110 | 111 | – | – | inactive |
| CG16800 | DRSC02518 | 108 | 163 | – | – | inactive |
| gom (gomdanji) | DRSC04690 | 61.6 | 192 | – | – | inactive |
